{"source": "PubChem BioAssay AID1224828 (NIAID, 2016)", "purpose": "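Regulators linking TLR4 signalling to p65 nuclear translocation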 (primary screen)", "cells": "mouse RAW264.7 G9 macrophage reporter cells (GFP-p65, Tnf promoter-mCherry)", "reagent": "siRNA pool against mouse genes, 100 nM", "duration": "2 days siRNA transfection, then 40 min LPS before fixation", "conditions": "LPS (Salmonella minnesota R595) at 10 ng/ml", "detection": "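Imaged p65 nuclear translocation ratio, normalised to the plate median, converted to robust z-scores and averaged across two replicates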", "direction": "p65 translocation robust z-score: higher = more nuclear NF-kappaB p65 after LPS than the plate median; nuclear/cytoplasmic p65 ratio: higher = more nuclear NF-kappaB p65", "rule for the call": "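Called active when z exceeds 3.3 or falls under -1.56 (median of Tlr4 controls), giving activity score of at least 50; no calls for control wells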", "calls": "active = hit (p65 shift raised or lowered); inactive = no clear change", "note": "The whole screen tested about 17,000 reagents; below is an unselected part. Over the whole deposit, 762 (4.5%) got an active call. 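Active calls include both raised and lowered p65 entry, mostly lowered; wells with fewer than 50 cells lack a z-score.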 The raw values are shown without normalisation. Reagents against one gene are numbered here. Reagent sequences are not shown."}
{"gene": "Gar1", "pool no.": 1, "p65 translocation robust z-score": -0.09, "nuclear/cytoplasmic p65 ratio, rep 1": 1.76, "nuclear/cytoplasmic p65 ratio, rep 2": 1.46, "low cell count flag": "enough cells to score", "activity call": "inactive"}
{"gene": "Or6c205", "pool no.": 1, "p65 translocation robust z-score": 0, "nuclear/cytoplasmic p65 ratio, rep 1": 1.58, "nuclear/cytoplasmic p65 ratio, rep 2": 1.45, "low cell count flag": "enough cells to score", "activity call": "inactive"}
{"gene": "Or6c205", "pool no.": 2, "p65 translocation robust z-score": 0.46, "nuclear/cytoplasmic p65 ratio, rep 1": 1.6, "nuclear/cytoplasmic p65 ratio, rep 2": 1.24, "low cell count flag": "enough cells to score", "activity call": "inactive"}
{"gene": "C6", "pool no.": 1, "p65 translocation robust z-score": 0.5, "nuclear/cytoplasmic p65 ratio, rep 1": 1.69, "nuclear/cytoplasmic p65 ratio, rep 2": 1.69, "low cell count flag": "enough cells to score", "activity call": "inactive"}
{"gene": "Slc4a3", "pool no.": 1, "p65 translocation robust z-score": 0.21, "nuclear/cytoplasmic p65 ratio, rep 1": 1.51, "nuclear/cytoplasmic p65 ratio, rep 2": 1.58, "low cell count flag": "enough cells to score", "activity call": "inactive"}
{"gene": "Trim61", "pool no.": 1, "p65 translocation robust z-score": 1.32, "nuclear/cytoplasmic p65 ratio, rep 1": 1.63, "nuclear/cytoplasmic p65 ratio, rep 2": 1.34, "low cell count flag": "enough cells to score", "activity call": "inactive"}
{"gene": "Kif1c", "pool no.": 1, "nuclear/cytoplasmic p65 ratio, rep 1": 1.31, "nuclear/cytoplasmic p65 ratio, rep 2": 1.22, "low cell count flag": "fewer than 50 cells per well; well left out of scoring", "activity call": "inactive"}
{"gene": "Mmgt1", "pool no.": 1, "p65 translocation robust z-score": 0.53, "nuclear/cytoplasmic p65 ratio, rep 1": 1.71, "nuclear/cytoplasmic p65 ratio, rep 2": 1.67, "low cell count flag": "enough cells to score", "activity call": "inactive"}
{"gene": "Nr2e1", "pool no.": 1, "p65 translocation robust z-score": -0.48, "nuclear/cytoplasmic p65 ratio, rep 1": 1.46, "nuclear/cytoplasmic p65 ratio, rep 2": 1.28, "low cell count flag": "enough cells to score", "activity call": "inactive"}
{"gene": "Atp6v1g3", "pool no.": 1, "p65 translocation robust z-score": 1.02, "nuclear/cytoplasmic p65 ratio, rep 1": 1.79, "nuclear/cytoplasmic p65 ratio, rep 2": 1.62, "low cell count flag": "enough cells to score", "activity call": "inactive"}
{"gene": "Nrcam", "pool no.": 1, "p65 translocation robust z-score": 0.83, "nuclear/cytoplasmic p65 ratio, rep 1": 1.77, "nuclear/cytoplasmic p65 ratio, rep 2": 1.71, "low cell count flag": "enough cells to score", "activity call": "inactive"}

As entered above:
Trim61, low cell count flag: enough cells to score
Mmgt1, low cell count flag → enough cells to score

Additional records follow:
{"gene": "Ddit4l", "pool no.": 1, "p65 translocation robust z-score": 0.34, "nuclear/cytoplasmic p65 ratio, rep 1": 1.6, "nuclear/cytoplasmic p65 ratio, rep 2": 1.62, "low cell count flag": "enough cells to score", "activity call": "inactive"}
{"gene": "Hspa4l", "pool no.": 1, "p65 translocation robust z-score": 0.31, "nuclear/cytoplasmic p65 ratio, rep 1": 1.47, "nuclear/cytoplasmic p65 ratio, rep 2": 1.47, "low cell count flag": "enough cells to score", "activity call": "inactive"}
{"gene": "Tanc2", "pool no.": 1, "p65 translocation robust z-score": 1.47, "nuclear/cytoplasmic p65 ratio, rep 1": 1.44, "nuclear/cytoplasmic p65 ratio, rep 2": 1.78, "low cell count flag": "enough cells to score", "activity call": "inactive"}
{"gene": "Rdh16f2", "pool no.": 1, "p65 translocation robust z-score": -0.93, "nuclear/cytoplasmic p65 ratio, rep 1": 1.48, "nuclear/cytoplasmic p65 ratio, rep 2": 1.58, "low cell count flag": "enough cells to score", "activity call": "inactive"}
{"gene": "Tfrc", "pool no.": 1, "p65 translocation robust z-score": 0.76, "nuclear/cytoplasmic p65 ratio, rep 1": 1.56, "nuclear/cytoplasmic p65 ratio, rep 2": 1.69, "low cell count flag": "enough cells to score", "activity call": "inactive"}
{"gene": "Scaper", "pool no.": 1, "p65 translocation robust z-score": -0.02, "nuclear/cytoplasmic p65 ratio, rep 1": 1.44, "nuclear/cytoplasmic p65 ratio, rep 2": 1.22, "low cell count flag": "enough cells to score", "activity call": "inactive"}
{"gene": "H2bc27", "pool no.": 1, "p65 translocation robust z-score": -1.47, "nuclear/cytoplasmic p65 ratio, rep 1": 1.58, "nuclear/cytoplasmic p65 ratio, rep 2": 1.35, "low cell count flag": "enough cells to score", "activity call": "inactive"}
{"gene": "Scn1a", "pool no.": 1, "p65 translocation robust z-score": 0.97, "nuclear/cytoplasmic p65 ratio, rep 1": 1.55, "nuclear/cytoplasmic p65 ratio, rep 2": 1.33, "low cell count flag": "enough cells to score", "activity call": "inactive"}
{"gene": "Tcf3", "pool no.": 1, "p65 translocation robust z-score": 0.23, "nuclear/cytoplasmic p65 ratio, rep 1": 1.58, "nuclear/cytoplasmic p65 ratio, rep 2": 1.52, "low cell count flag": "enough cells to score", "activity call": "inactive"}
{"gene": "Zfp65", "pool no.": 1, "p65 translocation robust z-score": -0.63, "nuclear/cytoplasmic p65 ratio, rep 1": 1.33, "nuclear/cytoplasmic p65 ratio, rep 2": 1.18, "low cell count flag": "enough cells to score", "activity call": "inactive"}
